Results from PubChem BioAssay AID720591 (Broad Institute, 2013).
The campaign covered roughly 1,200 compounds. About 60 (5%) were called active. Another 1% or so got no clear call; they are omitted.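 The calls were made as follows: active = Decreasing signal and fitted IC50 at most twice the top valid tested dose; inconclusive = Bad fit or a level curve showing 30 to 70% inhibition; inactive = the rest.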 The list shows a part of the results. Results with a measured potency or affinity are listed apart.

Protein sequences, listed by entry. Tags and fused reporters are not part of them. Lines headed by an entry give the natural chain unless they say otherwise; changes in a name come on top.
UniProt Q9NXA8: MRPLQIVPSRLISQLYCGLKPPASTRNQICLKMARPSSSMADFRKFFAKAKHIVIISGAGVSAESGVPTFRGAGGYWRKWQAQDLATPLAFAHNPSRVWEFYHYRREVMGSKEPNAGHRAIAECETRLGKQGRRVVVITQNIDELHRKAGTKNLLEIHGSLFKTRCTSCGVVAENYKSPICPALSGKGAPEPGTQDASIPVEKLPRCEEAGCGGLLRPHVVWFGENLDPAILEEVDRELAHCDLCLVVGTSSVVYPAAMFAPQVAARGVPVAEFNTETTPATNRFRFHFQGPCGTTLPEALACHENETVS

The compounds below were run against NAD-dependent protein deacylase sirtuin-5, mitochondrial (Homo sapiens) (UniProt Q9NXA8) (assay: SIRT5 desuccinylase inhibitors, dose response, biochemical, fluorescence imaging, cherry-pick, set 5 (AID 720591;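 also: 0% = median of neutral control wells and -100% = median of positive control wells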)). Conditions: Purified SirT5, succinyl-peptide AMC, trypsin-coupled fluorescence; at 15 µM (top of the series) unless noted.

Activity change, negative = inhibition, inactive:
O=C(C1CCCCC1)N1C[C@@H](O)[C@H](n2cc(-c3ccc(F)cc3)nn2)C[C@@H]1c1ccccc1 -8.98%
O=C1NC(Cc2ccc(O)cc2)c2nc3ccc(F)cc3c(=O)n2-c2ncccc21 (stereo not drawn) -12.6%
Cc1ccc(C(=O)N(C)CC(=O)Nc2ccc(Cl)c(C(F)(F)F)c2)cc1S(=O)(=O)N1CCCCC1 -22.8%
Cc1nnc(SCC(=O)Nc2ncc3c(n2)CC(c2ccccc2)CC3=O)s1 (stereo not drawn) -14%
CC1CN(C(=O)Nc2ccc(Br)cc2Cl)CC(C)O1 (stereo not drawn) 11%
CC12CCC3c4ccc(OCC(=O)O)cc4CCC3C1CCC2=O (stereo not drawn) -12.5%
CCOc1ccc(C(C(=O)NCC2CCCO2)N(Cc2cccs2)C(=O)c2snc(C(N)=O)c2N)cc1 (stereo not drawn) -12.1%
CCN(CC)C(=O)[C@H]1C[C@H](CC(=O)NC(C)(C)C)C(=O)N2CCc3c([nH]c4cc(CCC(=O)N(C)C)ccc34)[C@]12C -2.36%
Cc1cccc(NC(=O)Nc2ccc(OCc3ccccc3)cc2)n1 20.9%
Cc1ccc(S(=O)(=O)CC(=O)Nc2ccc3nc(C)sc3c2)cc1 -6.72%
NNC(=O)c1ccccc1-n1cccc1 15.5%
Cc1nc(NC(=O)C2CC2)sc1C -15%
CC1CN(CCOc2ccccc2-c2ccccc2)CC(C)O1 (stereo not drawn) -17.6%
CCOC(=O)c1c(C)nc(C)c(C(=O)OCC)c1-c1ccc(OC)cc1 22.9%
Cn1c(=O)c2c(-c3ccccc3)n(-c3cccc(O)c3)cc2n(C)c1=O -8.93%
CCN(C(=O)COC(=O)CNC(=O)c1ccccc1C)C1=CCCCC1 22.5%
Oc1ccc(-c2n[nH]c(C(F)(F)F)c2-c2ccccc2)c(O)c1 -7.08%
Cc1ccccc1-c1noc(CNC(=O)c2ccco2)n1 -20.4%
COc1cc(Cl)c(CN2CCCC(CO)(Cc3cccc(Cl)c3)C2)cc1OC (stereo not drawn) -2.29%
COc1ccc(CNC(=O)c2cc(=O)c3cc(C)cc(C)c3o2)cc1 -10.2%
CC(C)c1ccccc1OCC(=O)Nc1ccc2[nH]ncc2c1 -17.4%
CCOC(=O)C(N)CSC1CC(=O)N(c2ccc(OCC)cc2)C1=O (stereo not drawn) -18.2%
O=C(NCCc1ccc(Cl)cc1)C1CCC(=O)N(C2CCCCCC2)C1 (stereo not drawn) 43.4%
Cc1ccc(C(=O)n2nc(-n3cccc3)c3c(C)cc(C)nc32)cc1 7.51%
COc1ccccc1N1CCN(CC(=O)Nc2ccc3c(c2)OCCO3)CC1 -20.9%
O=C(CSc1nnc(NC(=O)c2ccco2)s1)Nc1cccc(F)c1 1.98%
O=C(c1cccs1)N1CCN(c2nc3c(F)cc(F)cc3s2)CC1 19.5%
CCOC(=O)n1c(=O)n(C)c2ccc(Cl)cc21 -25.5%
CN(Cc1nc(-c2ccc(Cl)cc2)no1)C(=O)c1ccco1 -32.1%
O=C(NCC(=O)N1CCN(C(c2ccccc2)c2ccccc2)CC1)c1ccccc1Br -20.6%
CCOC(=O)c1c(C)[nH]c(C)c1C(=O)COC(=O)c1cccc(C)c1O -9.02%
O=C(N[C@@H](Cc1ccccc1)C(=O)NC1CC1)c1ccc(Cl)cc1 -20.1%
Cc1ccc(C(=O)N2CCCC2)cc1S(=O)(=O)Nc1cccc(C)c1C 11.4%
COCCCNc1ncnc2c1sc1nc(-c3ccco3)c3c(c12)CC(C)(C)OC3 16.7%
COC(=O)c1c(-c2ccc(OC)cc2)oc2ccc(-c3cc(OC)c(OC)c(OC)c3)cc12 27%
O=C(c1ccc(F)cc1)N1CCOCC1 38.5%
CCc1noc(C)c1C(=O)OCC(=O)NCc1ccc(Cl)cc1 16.2%
COc1ccccc1OCCSc1nc2ccccc2n1CC(O)CO (stereo not drawn) -18.9%
Cc1coc2c(C)c3oc(=O)c(CCC(=O)N[C@@H](C)C(=O)N[C@@H](Cc4ccccc4)C(=O)O)c(C)c3cc12 -1.46%
NNC(=O)Cn1c(-c2ccccc2)cc2ccccc21 11.2%
COc1ccccc1CCNS(=O)(=O)c1cc2c3c(c1)C(C)C(=O)N3CCC2 (stereo not drawn) -29.6%
CC(C)N(C(=O)[C@H]1C[C@H](CC(=O)NCc2ccco2)C(=O)N2CCc3c([nH]c4cc(CCC(=O)N(C)C)ccc34)[C@]12C)C(C)C 3.22%
CCN(CC(=O)Nc1ccccc1OC)C(=O)c1cc(S(=O)(=O)N2CCCCCC2)ccc1OC -27.9%
O=c1ccn(Cc2ccccc2)c2ccccc12 30.6%
COC(=O)[C@]1(C)N[C@H](CN(C)C(=O)c2ccccc2)[C@@H]2C(=O)N(C)C(=O)[C@@H]21 18.3%
O=C(NCc1csc(-c2cccs2)n1)Nc1ccc(F)cc1F -5.87%
CCCc1cc(NCCCn2ccnc2)n2nc(C)c(-c3ccccc3)c2n1 4.18%
COCC(=O)N1CCC2CC1c1cc(Cl)ccc12 (stereo not drawn) -32.5%
COc1ccc(CCNC(=O)Cn2ccc3c(OC)cccc3c2=O)cc1OC -20%
CC(C)=CCN1CCN(Cc2cn(C(C)C)c3ccccc23)CC1CCO (stereo not drawn) 18.7%
C[C@H]([C@H](O)c1ccccc1)N(C)C(=O)CN -27.8%
COc1cc(C(=O)NCCN2CCN(C(=O)c3cc(OC)c(OC)c(OC)c3)CC2)cc(OC)c1OC 3.49%
Cc1cc(C)c2nc(N3CCC(C(=O)NCC4CCCO4)CC3)sc2c1 (stereo not drawn) -2.27%
CN1CCN(CC(=O)Nc2nc3ccccc3s2)CC1 9.4%
Cc1ccc(OCC(O)Cn2c(N3CCCCC3)nc3c2c(=O)[nH]c(=O)n3C)cc1 (stereo not drawn) -4.67%
Cc1cccc(C)c1NC(=O)N1CCCCCCC1 10.8%
CCCCCCNC(=O)c1ccc(Br)o1 2.66%
C[C@@H]1CN([C@H](C)CO)C(=O)c2cccc(NS(=O)(=O)c3cccs3)c2O[C@H]1CN(C)Cc1ccccc1 -27.6%

Of the compounds above, these contain an aryl thioether with sulfur outside any ring:
Activity change, negative = inhibition, inactive:
Cc1nnc(SCC(=O)Nc2ncc3c(n2)CC(c2ccccc2)CC3=O)s1 (stereo not drawn) -14%
O=C(CSc1nnc(NC(=O)c2ccco2)s1)Nc1cccc(F)c1 1.98%
COc1ccccc1OCCSc1nc2ccccc2n1CC(O)CO (stereo not drawn) -18.9%
